Experimental data published in paper PMC4195880.
Results are given in words; binding and its absence hold for the method and conditions named. Binding seen in cells or lysates may run through a third protein. Some binding calls cover weakened binding; strength is not graded here.

Sequences of proteins named here, by UniProt entry; tags and fusion partners are left off.
UniProt P29994: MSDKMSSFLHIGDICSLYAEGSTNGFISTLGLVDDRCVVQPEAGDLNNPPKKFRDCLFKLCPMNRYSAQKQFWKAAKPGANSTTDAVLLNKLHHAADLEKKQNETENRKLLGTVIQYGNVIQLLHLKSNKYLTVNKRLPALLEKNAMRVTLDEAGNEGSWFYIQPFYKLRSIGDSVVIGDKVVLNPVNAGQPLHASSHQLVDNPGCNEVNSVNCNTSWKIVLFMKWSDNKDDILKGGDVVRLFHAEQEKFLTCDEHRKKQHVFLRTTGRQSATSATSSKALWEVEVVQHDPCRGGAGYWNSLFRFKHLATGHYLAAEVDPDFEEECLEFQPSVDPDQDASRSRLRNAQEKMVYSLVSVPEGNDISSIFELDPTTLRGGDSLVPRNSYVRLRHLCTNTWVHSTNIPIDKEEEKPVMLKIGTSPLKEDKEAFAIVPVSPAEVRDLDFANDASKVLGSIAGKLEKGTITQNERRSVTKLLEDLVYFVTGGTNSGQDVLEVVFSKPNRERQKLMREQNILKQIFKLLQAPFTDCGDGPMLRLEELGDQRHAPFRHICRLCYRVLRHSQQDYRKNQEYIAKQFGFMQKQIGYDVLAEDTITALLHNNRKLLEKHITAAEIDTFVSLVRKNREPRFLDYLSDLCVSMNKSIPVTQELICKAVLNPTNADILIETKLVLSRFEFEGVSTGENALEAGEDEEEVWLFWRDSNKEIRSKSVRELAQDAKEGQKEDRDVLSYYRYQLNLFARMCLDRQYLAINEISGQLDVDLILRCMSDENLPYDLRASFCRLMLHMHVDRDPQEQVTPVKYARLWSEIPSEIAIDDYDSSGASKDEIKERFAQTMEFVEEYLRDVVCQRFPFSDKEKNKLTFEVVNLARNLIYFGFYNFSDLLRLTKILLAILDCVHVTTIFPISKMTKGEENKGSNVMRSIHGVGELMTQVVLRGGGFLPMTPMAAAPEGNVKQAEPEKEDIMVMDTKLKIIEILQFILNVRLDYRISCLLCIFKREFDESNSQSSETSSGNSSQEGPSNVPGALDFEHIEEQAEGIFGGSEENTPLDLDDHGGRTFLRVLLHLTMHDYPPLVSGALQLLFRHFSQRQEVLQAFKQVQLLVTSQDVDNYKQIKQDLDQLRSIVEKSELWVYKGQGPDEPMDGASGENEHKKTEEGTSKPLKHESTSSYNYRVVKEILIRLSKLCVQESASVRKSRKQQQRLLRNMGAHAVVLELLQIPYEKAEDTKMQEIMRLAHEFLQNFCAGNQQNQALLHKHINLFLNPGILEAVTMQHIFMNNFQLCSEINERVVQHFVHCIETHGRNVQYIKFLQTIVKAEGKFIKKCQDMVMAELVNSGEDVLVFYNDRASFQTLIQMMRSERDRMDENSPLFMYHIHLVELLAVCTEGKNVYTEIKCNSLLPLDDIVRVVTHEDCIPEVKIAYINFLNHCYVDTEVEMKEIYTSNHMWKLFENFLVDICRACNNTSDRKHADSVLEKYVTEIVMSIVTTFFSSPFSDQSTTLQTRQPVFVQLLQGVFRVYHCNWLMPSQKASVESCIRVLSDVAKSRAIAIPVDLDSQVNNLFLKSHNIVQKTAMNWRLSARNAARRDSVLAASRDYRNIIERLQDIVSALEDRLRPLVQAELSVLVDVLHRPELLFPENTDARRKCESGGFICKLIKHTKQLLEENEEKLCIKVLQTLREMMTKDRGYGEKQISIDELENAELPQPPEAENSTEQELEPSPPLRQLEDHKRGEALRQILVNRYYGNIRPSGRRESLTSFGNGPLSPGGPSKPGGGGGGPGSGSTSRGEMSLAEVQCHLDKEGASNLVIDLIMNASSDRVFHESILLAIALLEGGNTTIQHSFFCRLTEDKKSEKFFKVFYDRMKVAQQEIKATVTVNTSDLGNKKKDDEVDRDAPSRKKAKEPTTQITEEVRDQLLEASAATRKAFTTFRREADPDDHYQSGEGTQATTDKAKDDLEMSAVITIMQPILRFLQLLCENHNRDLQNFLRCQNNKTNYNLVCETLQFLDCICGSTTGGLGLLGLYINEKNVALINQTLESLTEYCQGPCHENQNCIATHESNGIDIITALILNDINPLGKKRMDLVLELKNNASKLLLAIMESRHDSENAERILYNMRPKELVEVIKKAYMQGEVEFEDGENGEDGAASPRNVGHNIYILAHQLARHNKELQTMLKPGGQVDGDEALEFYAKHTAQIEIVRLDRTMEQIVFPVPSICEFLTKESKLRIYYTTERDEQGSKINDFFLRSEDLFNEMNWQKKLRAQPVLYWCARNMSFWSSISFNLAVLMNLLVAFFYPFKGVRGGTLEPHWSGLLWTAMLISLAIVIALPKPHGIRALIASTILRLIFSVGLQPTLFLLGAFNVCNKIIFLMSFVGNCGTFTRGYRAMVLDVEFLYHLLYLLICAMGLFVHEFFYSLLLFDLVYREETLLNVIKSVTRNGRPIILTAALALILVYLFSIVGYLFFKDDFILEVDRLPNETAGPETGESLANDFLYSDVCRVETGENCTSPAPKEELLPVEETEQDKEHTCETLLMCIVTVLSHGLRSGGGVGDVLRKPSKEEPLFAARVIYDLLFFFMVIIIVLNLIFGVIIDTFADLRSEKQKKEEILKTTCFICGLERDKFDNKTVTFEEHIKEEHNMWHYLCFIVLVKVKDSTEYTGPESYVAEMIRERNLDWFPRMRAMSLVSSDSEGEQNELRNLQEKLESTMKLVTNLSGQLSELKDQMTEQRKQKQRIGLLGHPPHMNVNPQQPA
UniProt Q63269: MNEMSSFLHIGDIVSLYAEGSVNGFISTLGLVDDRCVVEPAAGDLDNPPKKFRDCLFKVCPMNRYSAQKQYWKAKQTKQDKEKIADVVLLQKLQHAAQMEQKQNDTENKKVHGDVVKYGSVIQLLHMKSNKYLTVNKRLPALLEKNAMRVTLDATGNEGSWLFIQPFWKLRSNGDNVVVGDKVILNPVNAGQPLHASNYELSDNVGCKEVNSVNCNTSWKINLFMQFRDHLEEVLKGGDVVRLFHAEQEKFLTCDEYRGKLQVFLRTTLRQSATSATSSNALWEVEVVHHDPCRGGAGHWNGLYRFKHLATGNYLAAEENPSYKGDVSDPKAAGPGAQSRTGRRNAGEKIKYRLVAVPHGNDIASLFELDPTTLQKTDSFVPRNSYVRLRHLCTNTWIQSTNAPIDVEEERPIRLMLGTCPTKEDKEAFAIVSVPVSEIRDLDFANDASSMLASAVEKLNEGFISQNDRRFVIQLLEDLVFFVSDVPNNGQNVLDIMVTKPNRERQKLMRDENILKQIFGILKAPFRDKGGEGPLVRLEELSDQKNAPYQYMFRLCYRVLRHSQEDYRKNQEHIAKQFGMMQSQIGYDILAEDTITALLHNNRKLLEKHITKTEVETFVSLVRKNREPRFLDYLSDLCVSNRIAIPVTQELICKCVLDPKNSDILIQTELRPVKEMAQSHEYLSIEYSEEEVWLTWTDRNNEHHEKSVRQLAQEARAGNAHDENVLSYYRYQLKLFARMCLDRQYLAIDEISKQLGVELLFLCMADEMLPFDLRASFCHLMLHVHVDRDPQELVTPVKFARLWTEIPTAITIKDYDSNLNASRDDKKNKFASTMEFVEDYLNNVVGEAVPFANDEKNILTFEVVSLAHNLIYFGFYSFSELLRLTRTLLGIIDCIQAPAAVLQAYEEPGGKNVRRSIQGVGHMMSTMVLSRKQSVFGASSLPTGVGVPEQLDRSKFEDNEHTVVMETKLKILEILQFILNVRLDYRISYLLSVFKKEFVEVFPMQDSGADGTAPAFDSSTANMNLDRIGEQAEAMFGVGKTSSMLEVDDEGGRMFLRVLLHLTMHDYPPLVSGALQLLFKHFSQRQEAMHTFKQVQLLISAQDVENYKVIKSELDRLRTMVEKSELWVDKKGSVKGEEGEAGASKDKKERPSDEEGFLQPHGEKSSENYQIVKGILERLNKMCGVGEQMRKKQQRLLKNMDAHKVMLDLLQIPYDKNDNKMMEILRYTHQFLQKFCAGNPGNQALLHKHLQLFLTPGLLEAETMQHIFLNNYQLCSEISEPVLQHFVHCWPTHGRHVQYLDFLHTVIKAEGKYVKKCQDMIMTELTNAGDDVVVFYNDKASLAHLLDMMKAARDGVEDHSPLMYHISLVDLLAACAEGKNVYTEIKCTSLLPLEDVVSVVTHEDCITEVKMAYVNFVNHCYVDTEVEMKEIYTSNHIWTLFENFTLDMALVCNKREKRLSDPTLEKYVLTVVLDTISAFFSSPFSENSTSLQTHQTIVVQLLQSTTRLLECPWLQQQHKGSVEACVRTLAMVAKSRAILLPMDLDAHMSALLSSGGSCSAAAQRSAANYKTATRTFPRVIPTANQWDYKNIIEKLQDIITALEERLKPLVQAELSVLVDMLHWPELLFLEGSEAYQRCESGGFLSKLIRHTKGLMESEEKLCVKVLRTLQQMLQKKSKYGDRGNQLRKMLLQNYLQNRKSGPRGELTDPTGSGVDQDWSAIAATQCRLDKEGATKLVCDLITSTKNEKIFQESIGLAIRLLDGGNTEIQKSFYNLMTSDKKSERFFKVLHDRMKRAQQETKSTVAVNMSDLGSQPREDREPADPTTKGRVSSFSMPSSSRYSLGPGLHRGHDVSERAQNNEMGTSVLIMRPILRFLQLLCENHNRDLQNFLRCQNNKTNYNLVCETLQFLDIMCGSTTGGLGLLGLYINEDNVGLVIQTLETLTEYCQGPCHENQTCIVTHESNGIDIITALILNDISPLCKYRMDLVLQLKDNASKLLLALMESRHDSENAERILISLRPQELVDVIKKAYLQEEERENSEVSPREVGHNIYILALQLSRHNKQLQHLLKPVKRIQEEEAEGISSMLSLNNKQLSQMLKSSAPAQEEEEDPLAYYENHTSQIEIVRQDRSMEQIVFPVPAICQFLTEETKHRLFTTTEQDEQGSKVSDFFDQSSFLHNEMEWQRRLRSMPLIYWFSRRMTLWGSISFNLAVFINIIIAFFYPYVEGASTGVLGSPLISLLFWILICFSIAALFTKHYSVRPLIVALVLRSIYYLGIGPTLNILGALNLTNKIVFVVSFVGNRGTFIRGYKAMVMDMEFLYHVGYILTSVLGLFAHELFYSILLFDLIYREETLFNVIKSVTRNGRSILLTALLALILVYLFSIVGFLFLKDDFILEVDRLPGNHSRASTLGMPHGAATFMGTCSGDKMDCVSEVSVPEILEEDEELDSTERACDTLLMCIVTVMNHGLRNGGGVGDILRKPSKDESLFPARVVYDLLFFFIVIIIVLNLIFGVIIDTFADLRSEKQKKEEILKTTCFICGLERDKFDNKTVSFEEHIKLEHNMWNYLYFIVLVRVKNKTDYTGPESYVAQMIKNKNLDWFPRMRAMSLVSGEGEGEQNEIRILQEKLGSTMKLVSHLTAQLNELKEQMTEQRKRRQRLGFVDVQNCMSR
UniProt P08050: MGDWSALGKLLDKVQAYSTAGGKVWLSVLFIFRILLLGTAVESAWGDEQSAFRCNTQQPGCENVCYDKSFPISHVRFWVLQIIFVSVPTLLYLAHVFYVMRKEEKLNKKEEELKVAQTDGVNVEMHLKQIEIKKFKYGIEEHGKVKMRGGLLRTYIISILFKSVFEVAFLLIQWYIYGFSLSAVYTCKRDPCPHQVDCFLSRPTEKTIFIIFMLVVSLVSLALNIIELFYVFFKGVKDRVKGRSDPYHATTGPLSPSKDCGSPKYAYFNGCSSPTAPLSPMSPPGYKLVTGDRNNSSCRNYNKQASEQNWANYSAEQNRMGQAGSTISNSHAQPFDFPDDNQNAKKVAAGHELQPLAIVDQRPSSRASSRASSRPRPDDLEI

What was measured:
[1] = biological target: Inositol 1,4,5-trisphosphate receptor isoform 1 (neonatal rat ventricular myocytes) (rat (endogenous in neonatal rat ventricular myocytes)) (UniProt P29994); experiment: co-IP; solubilized lysates of homogenized NRVMs; immunoprecipitation with anti-Cx43, anti-pan-IP3R or anti-IP3R isoform antibodies; western blot with anti-Cx43 or anti-pan-IP3R antibody
[2] = biological target: Inositol 1,4,5-trisphosphate receptor isoform 3 (neonatal rat ventricular myocytes) (rat (endogenous in neonatal rat ventricular myocytes)) (UniProt Q63269); experiment: as above

binding [1]: binds
binding [2]: binds
Substance: Connexin 43 (neonatal rat ventricular myocytes) (from UniProt P08050 1-382)
